Measurements as given in paper PMC4772114, “Structural basis for the regulation of enzymatic activity of Regnase-1 by domain-domain interactions” (Scientific Reports, 2016).
Construct, isoform or probe ends are uncertain for at least one entry. For part of these data: Weaker means in comparison with the reference protein, sequence or condition of that experiment. At least one verdict was read from the data and is not stated in words by the source. Tags and fusion partners may be left off the protein sequences shown.

What was measured:
Assay in all cases: EMSA
[1] = biological target: T1, Regnase-1 NTD-PIN-ZF (DDNN) D226N,D244N (Mus musculus) (UniProt Q5D1E7); settings: NTD does not significantly change binding; EMSA: 20 mM HEPES-NaOH pH 6.8, 150 mM NaCl, 1 mM DTT, 10% glycerol, 0.1% NP-40, 4 C, 30 min; recombinant protein; protein details: GST removed (HRV-3C); label: 5'-6-FAM
T1 sequence (looked up, limits assumed): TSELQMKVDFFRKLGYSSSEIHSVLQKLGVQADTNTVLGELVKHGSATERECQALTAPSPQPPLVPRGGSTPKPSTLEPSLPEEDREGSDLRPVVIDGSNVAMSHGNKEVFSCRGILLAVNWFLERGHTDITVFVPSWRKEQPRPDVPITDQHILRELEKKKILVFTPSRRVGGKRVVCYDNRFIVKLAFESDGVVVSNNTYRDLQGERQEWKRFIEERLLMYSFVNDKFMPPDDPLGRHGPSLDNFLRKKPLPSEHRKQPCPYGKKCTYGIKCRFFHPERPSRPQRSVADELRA

[2] = biological target: T2, Regnase-1 PIN (DDNN) D226N,D244N (Mus musculus) (UniProt Q5D1E7); settings: lower than with ZF present; EMSA: 20 mM HEPES-NaOH pH 6.8, 150 mM NaCl, 1 mM DTT, 10% glycerol, 0.1% NP-40, 4 C, 30 min; recombinant protein; protein details: GST removed (HRV-3C); label: 5'-6-FAM
T2 sequence (looked up, limits assumed): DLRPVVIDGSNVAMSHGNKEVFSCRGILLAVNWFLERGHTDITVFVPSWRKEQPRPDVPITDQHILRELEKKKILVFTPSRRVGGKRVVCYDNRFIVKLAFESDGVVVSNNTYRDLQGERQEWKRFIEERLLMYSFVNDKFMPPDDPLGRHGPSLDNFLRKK

[3] = biological target: T3, Regnase-1 PIN-ZF (DDNN) D226N,D244N (Mus musculus) (UniProt Q5D1E7); settings: ZF increases binding; EMSA: 20 mM HEPES-NaOH pH 6.8, 150 mM NaCl, 1 mM DTT, 10% glycerol, 0.1% NP-40, 4 C, 30 min; recombinant protein; protein details: GST removed (HRV-3C); label: 5'-6-FAM
T3 sequence (looked up, limits assumed): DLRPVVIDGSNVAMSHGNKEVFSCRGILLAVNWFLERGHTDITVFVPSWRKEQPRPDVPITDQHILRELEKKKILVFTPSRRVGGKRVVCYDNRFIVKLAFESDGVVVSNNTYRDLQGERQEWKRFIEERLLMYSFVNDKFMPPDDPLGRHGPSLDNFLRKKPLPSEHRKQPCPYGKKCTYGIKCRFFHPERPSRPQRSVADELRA

UGUUGUUCUCUACGAAGAACUGACA [IL-6 mRNA 3'UTR (82-106), 6-FAM]
binding result [1]: binds | binding result [2]: binds more weakly | binding result [3]: binds
